Assay results published in PubChem BioAssay AID1259415 (National Center for Advancing Translational Sciences (NCATS), 2018).
Several values for one entry are separate records, joined by “and”; a condition that tells them apart may be missing. Identical values can stand only once. The whole screen tested about 410,000 compounds, of which about 18,000 (4.4%) were called active. The shares of active, inactive and inconclusive entries below differ from those in the screen. No stated cut-off is given here; in the data, active means activity change below about -60%; inconclusive means no clear call, values can overlap the other calls; inactive means above about -39%.

Experiment: qHTS Assay for inhibitors of the human cytomegalovirus (HCMV)
Settings: HFF cells, HCMV-luciferase reporter, 72 h; at 57.5 µM; stronger effect = lower value
Method in brief: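 HFF cells seeded 16 h at 37C, treated with compounds, infected with luciferase-reporter HCMV at MOI 1 PFU/cell; luciferase read at 72 h post infection, normalized to buffer-only and Salinomycin controls.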
On the % scale 0 is the no-effect control and ±100 the full control effect.

| SMILES | activity change, negative = inhibition |
| --- | --- |
| CC(C)(C)OC(=O)N(CCc1ccccc1)Cc1ccc(OCc2cccc(NC(=O)/C=C/c3ccccc3)c2)cc1 | inactive: 61.6% |
| Cc1ccc(-n2cc(-c3ccccc3)c3c(N4CCC(C)CC4)ncnc32)cc1Cl | inconclusive: -55.1% |
| Fc1ccccc1CCNCc1cccc(Cl)c1Cl | inactive: 7.61% |
| CC1=CC(C)(C)Nc2ccc(OC(=O)C(C)N3C(=O)c4ccccc4C3=O)cc21 (centres undefined) | active: -73.7% |
| COc1ccc(C(CNC(=O)c2oc3ccc(F)cc3c2C)N2CCCCC2)cc1 (centres undefined) | inactive: -19.9% |
| COc1ccc(OC)c(CCNC(=O)c2ccc3c(c2)N(Cc2ccccc2)CCS3)c1 | inactive: -22.8% and inactive: -34.1% |
| O=C(CNC(=O)C12CC3CC(CC(C3)C1)C2)N1CCN(S(=O)(=O)c2cccs2)CC1 | inconclusive: -42.6% |
| Cc1ccc(NC(=O)c2ccc(F)cc2F)cc1 | inactive: 58.4% |
| Cc1ccc(NC(=O)c2cc(S(=O)(=O)N3CCOCC3)cs2)cc1 | inactive: 4.23% |
| CCOCCOC(=O)Cn1cnc2scc(-c3ccc(C)cc3)c2c1=O | inconclusive: -41% |
| COc1cccc(-c2cc(C(=O)N3CCN(S(=O)(=O)c4ccccc4)CC3)[nH]n2)c1 | inconclusive: -58% |
| O=C(N/N=C/c1cc(Cl)c(O)c(Cl)c1)c1cc2c(ccc3ccccc32)o1 | inconclusive: -47.5% |
| CC(C)C[C@H]1CN([C@@H](Cc2ccc(O)cc2)CN2CCC[C@@H]2CN2C(=O)C(=O)NC[C@@H]2Cc2ccccc2)C(=O)C(=O)N1CC1CCCCC1 | inconclusive: -44% |
| Cc1cc(C)n(C2CCCCC2OC(=O)c2ccccc2F)n1 (centres undefined) | inactive: -4.96% |
| O=C(CC1SC(=Nc2ccccc2)N(CCc2ccccn2)C1=O)Nc1ccc(F)cc1 (centres undefined) | inconclusive: -44.7% |
| O=C(CCCCCn1c(=S)[nH]c2ccc(N3CCOCC3)cc2c1=O)NC1CCN(Cc2ccccc2)CC1 | inconclusive: -42.3% |
| Cc1ccc(S(=O)(=O)N(CC(=O)Nc2cccnc2)c2cc(Cl)ccc2C)cc1 | inconclusive: -52% |
| Cc1ccc(-n2nc(C(=O)N(C)c3ccc(C)c(C)c3)c3c4ccccc4n(C)c3c2=O)cc1 | inactive: -1.31% |
| COc1ccc(NC(=O)c2oc3ccccc3c2C)c(OC)c1 | inactive: 23.4% |
| CCOc1ccc(C2NC(=O)c3sc(=S)n(-c4ccccc4)c3N2)cc1 (centres undefined) | inactive: 107% |
| O=C(Nc1ccc(S(=O)(=O)Nc2nccs2)cc1)c1ccc(F)c(S(=O)(=O)N2CCOCC2)c1 | inconclusive: -54.3% |
| COc1ccc(C2Sc3nncn3N2Cc2ccc(C#N)cc2)cc1 (centres undefined) | inconclusive: -40.3% |
| Cc1ccc(S(=O)(=O)N(C)CC(=O)NCCc2c[nH]c3ccccc23)cc1 | inconclusive: -40.2% |
| COc1ccc(C2=NN(C(=O)CCC(=O)O)C(c3ccc(OC)c(OC)c3)C2)cc1 (centres undefined) | active: -102% |
| COc1cc(CNc2cccc3[nH]c(C(F)(F)F)nc23)cc(OC)c1 | inconclusive: -46.4% |
| O=C(Nc1nnc(S(=O)(=O)N2CCN(c3ccc(F)cc3)CC2)s1)c1ccco1 | inactive: -38.6% |
| C[C@@H]1CN[C@@H](CCO)/C1=C\c1ccccc1 | inactive: -12% |

| SMILES | activity change, negative = inhibition |
| --- | --- |
| N/C(=N\OC(=O)c1ccc2ccccc2c1)c1ccncc1 | inactive: 32.6% |
| Cc1ccc(Nc2nc(Cl)nc(N(C)C#N)n2)cc1 | inactive: 28.2% |
| Cn1c2ccccc2c2cc(/C=N/NC(=O)c3cc(O)cc(O)c3)ccc21 | inactive: -22.7% |
| Cc1ccc(-c2noc(C3CCCN(C(=O)c4ccc(Cl)cc4)C3)n2)o1 (centres undefined) | inactive: -22.8% |
| CCc1ccc(NC(=O)CSc2nnc(CC)c(CC)n2)cc1 | inconclusive: 0% |
| CNC(=S)N1CCC(NC(=O)C(Cc2ccccc2)NC(C)=O)CC1 (centres undefined) | inconclusive: -49.6% |
| CN(C)S(=O)(=O)c1cccc(NC(=O)COc2ccc(C(=O)c3ccccc3)cc2)c1 | inconclusive: -43.4% |
| O=[N+]([O-])c1ccc(Nc2ccccc2)nc1 | inactive: 6.44% |
| O=C(CN1C(=O)S/C(=C\c2ccc(F)cc2)C1=O)Nc1cccc(S(=O)(=O)NCc2ccco2)c1 | active: -98.5% |
| COc1cc(/C=C/c2ccc3cccc(OC)c3n2)c(OC(C)=O)c([N+](=O)[O-])c1 | active: -83.8% |
| COc1ccc(Cl)cc1C(=O)CSc1nnnn1C1CCCCC1 | active: -62.1% |
| CC(C)c1[nH]nc2c1C(c1ccc(OC(=O)c3ccco3)cc1)C(C#N)=C(N)O2 (centres undefined) | inconclusive: -47.8% |
| CC(C)NCC(O)COCCOc1ccc(C(C)(C)C)cc1 (centres undefined) | inconclusive: -48.6% |
| O=C(NCC1OCCc2ccccc21)c1ccc(NC(=O)c2ccccc2Cl)cc1 (centres undefined) | inconclusive: -55.3% |
| CCCCN1C(=O)c2[nH]nc(-c3ccccc3O)c2C1c1ccc(OCc2ccccc2)c(OC)c1 (centres undefined) | inconclusive: -57.2% |
| O=C(Nc1ccc(Cl)c(Cl)c1)Nc1nnc(CC2=CCCCC2)s1 | inconclusive: -59.9% |
| Cc1ccc(O)c(NC(=O)c2cc(-c3ccco3)on2)c1 | active: -60.7% |
| O=C(CCl)NN=C(c1ccccc1)c1ccccc1 | inconclusive: -47% |
| COC(=O)Cc1cc(=O)[nH]c(/N=C(\N)Nc2cccc(C)c2)n1 | inconclusive: -44.6% |
| CC1NC(=O)COC1c1ccccc1 (centres undefined) | inactive: -15% |
| CC(C)(C)c1ccc(-c2nc3c(C#N)c(-c4ccc5c(c4)OCO5)ccn3n2)cc1 | inconclusive: -44.6% |
| CCCN(C(=O)c1ccc2c(SCC(=O)O)c3c(nc2c1)CCC3)c1cccc(C)c1 | active: -60.2% |
| CNC(=O)c1cc2ccc(OC)cc2oc1=O | inconclusive: -41.4% |
| CCCN(Cc1ccc(N(CC)CC)cc1)CC1CC1 | active: -66.2% |
| Cc1cc(C)nc(N/N=C/c2ccccc2OCc2ccccc2)n1 | inconclusive: -46.2% |
| CCOc1ccc(CNC(=O)c2ccc(CSc3nc4ccncc4n3Cc3ccc(F)cc3)cc2)cc1 | inconclusive: -47.5% |
| CCN(CC)S(=O)(=O)c1nnc(NC(=O)c2ccco2)s1 | inactive: 5.25% |
